Data from publication PMC3688601.
Read-outs that look alike come from different tables or passages of the source. These are yes or no findings as the source states them, for the method shown. In cells and extracts the contact can be indirect. Some binding calls cover weakened binding; strength is not graded here. Where a sequence is shown, tags or fusion partners need not be part of it.

The chains behind the UniProt entries cited, without tags or fusion partners.
UniProt P13569: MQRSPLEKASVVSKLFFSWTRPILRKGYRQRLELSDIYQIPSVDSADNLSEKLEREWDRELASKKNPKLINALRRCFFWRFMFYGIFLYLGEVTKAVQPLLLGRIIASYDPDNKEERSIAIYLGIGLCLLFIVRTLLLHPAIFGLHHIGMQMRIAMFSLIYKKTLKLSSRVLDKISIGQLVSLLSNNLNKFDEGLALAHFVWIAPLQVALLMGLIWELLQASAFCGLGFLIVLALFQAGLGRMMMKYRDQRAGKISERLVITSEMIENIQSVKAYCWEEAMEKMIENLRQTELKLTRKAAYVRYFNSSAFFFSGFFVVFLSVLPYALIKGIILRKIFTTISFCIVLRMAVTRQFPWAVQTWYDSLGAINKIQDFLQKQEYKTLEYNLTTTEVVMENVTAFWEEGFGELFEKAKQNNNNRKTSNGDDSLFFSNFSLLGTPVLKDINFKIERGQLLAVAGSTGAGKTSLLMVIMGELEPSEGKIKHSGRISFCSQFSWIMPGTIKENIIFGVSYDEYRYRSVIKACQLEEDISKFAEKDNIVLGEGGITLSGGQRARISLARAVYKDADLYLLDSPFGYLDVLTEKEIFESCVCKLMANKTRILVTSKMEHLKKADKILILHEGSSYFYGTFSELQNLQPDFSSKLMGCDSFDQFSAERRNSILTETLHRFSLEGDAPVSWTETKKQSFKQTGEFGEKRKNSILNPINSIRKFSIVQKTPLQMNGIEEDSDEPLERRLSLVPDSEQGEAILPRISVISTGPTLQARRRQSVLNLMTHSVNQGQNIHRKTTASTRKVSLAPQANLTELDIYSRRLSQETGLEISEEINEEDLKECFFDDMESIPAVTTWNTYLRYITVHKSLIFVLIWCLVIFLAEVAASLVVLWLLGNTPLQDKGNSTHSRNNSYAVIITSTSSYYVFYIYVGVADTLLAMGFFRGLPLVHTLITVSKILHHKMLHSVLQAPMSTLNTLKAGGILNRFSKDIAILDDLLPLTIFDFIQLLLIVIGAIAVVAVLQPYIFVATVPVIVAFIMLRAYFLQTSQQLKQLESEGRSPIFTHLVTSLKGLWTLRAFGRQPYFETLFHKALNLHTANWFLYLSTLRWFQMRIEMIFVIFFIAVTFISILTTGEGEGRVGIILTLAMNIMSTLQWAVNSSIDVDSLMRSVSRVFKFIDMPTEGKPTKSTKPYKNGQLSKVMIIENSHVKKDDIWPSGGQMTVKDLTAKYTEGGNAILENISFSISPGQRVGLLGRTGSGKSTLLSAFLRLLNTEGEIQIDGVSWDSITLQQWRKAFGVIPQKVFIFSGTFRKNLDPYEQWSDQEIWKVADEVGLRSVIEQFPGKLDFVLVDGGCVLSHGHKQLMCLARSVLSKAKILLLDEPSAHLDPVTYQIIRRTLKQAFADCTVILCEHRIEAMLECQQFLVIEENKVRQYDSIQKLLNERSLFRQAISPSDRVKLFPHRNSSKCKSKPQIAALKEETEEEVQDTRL

T1: HA-tagged MARCH2 (UniProt Q9P0N8)
T1 sequence: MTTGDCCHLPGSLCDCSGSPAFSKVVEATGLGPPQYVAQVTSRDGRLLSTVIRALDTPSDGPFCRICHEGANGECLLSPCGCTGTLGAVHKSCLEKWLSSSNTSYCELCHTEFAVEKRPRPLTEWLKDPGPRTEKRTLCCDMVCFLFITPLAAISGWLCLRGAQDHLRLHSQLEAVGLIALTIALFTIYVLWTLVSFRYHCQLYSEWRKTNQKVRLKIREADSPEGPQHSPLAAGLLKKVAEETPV


Key:
HA-tagged MARCH2 [1] = target: T1, HA-tagged MARCH2; assay: co-IP; HEK293 cells co-transfected, lysates after 48 h (150 mM NaCl, 50 mM Tris-HCl pH 7.4, 1% Nonidet P-40); 500 µg supernatant with anti-HA affinity matrix at 4 °C overnight to precipitate the HA-tagged partner; immunoblot for the myc- or GFP-tagged partner; in Figure 1B also triple transfection with myc-STX6, which increased the myc-CAL precipitated by HA-MARCH2
HA-tagged MARCH2 [2] = target: T1, HA-tagged MARCH2; assay: as above; remark: listed apart in the source

Row | binding (HA-tagged MARCH2 [1]) | binding (HA-tagged MARCH2 [2]) | Molecule
1 | binds | – | GFP-tagged wild-type CFTR (from UniProt P13569 1-1480)
2 | – | binds | myc-STX6 (protein, UniProt O43752 1-255) MSMEDPFFVVKGEVQKAVNTAQGLFQRWTELLQDPSTATREEIDWTTNELRNNLRSIEWDLEDLDETISIVEANPRKFNLDATELSIRKAFITSTRQVVRDMKDQMSTSSVQALAERKNRQALLGDSGSQNWSTGTTDKYGRLDRELQRANSHFIEEQQAQQQLIVEQQDEQLELVSGSIGVLKNMSQRIGGELEEQAVMLEDFSHELESTQSRLDNVMKKLAKVSHMTSDRRQWCAIAILFAVLLVVLILFLVL
